Experimental data as given in article PMC3364193.
No constants are given. Whether binding was seen depends on the method and setting. Binding seen in cells or lysates may run through a third protein. Some binding calls cover weakened binding; strength is not graded here. Tags and fused reporters may be left off the sequences shown.

Protein sequences, listed by entry. Tags and fused reporters are not part of them.
UniProt P62330: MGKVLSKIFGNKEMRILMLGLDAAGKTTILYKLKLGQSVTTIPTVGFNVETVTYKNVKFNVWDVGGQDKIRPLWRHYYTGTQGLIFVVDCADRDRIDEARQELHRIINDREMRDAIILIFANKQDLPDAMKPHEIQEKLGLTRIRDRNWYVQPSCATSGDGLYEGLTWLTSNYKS
UniProt P84077: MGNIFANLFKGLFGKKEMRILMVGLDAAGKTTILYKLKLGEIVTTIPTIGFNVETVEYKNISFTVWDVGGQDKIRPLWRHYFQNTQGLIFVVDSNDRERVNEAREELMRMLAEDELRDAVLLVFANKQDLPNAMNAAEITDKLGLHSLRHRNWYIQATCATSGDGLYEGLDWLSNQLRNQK

Legend:
[1] = biological target: T1, GST-Golgi associated, gamma adaptin ear containing, ARF binding protein 3 (GGA3) protein binding domain (PBD; amino acids 1-316) (human) (UniProt Q9NZ52); test: pull-down; untreated placental and myometrial tissue lysates (0.3 mg protein; NP, NIL, SL, PT-NIL, PT-SL) incubated 2 h at 4°C with 15 µl glutathione resin coupled to GST-GGA3 PBD (3 mg/ml of resin); washed in 50 mM Tris-HCl pH 7.5, 10 mM MgCl2, 150 mM NaCl, 1% Triton X-100; immunoblot with anti-ARF1 or anti-ARF6; only the target purified
T1 sequence: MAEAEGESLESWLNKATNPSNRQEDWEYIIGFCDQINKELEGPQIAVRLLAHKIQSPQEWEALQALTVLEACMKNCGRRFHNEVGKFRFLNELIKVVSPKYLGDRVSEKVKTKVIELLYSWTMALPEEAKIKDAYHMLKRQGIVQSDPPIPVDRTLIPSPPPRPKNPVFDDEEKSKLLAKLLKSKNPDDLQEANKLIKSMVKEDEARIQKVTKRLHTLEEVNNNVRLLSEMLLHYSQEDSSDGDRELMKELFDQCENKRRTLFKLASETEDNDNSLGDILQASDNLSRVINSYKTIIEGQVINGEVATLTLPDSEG

[2] = biological target: T1, GST-Golgi associated, gamma adaptin ear containing, ARF binding protein 3 (GGA3) protein binding domain (PBD; amino acids 1-316) (human); test: pull-down; non-pregnant myometrium lysate incubated with 0.1 mM GTPγS for 30 min, then 2 h with GST-GGA3 PBD on glutathione resin; immunoblot with anti-ARF6; only the target purified
[3] = biological target: T1, GST-Golgi associated, gamma adaptin ear containing, ARF binding protein 3 (GGA3) protein binding domain (PBD; amino acids 1-316) (human); test: pull-down; non-pregnant myometrium lysate incubated with 1 mM GDP for 30 min, then 2 h with GST-GGA3 PBD on glutathione resin; immunoblot with anti-ARF6; only the target purified

| binding [1] | binding [2] | Substance | binding [3] |
| --- | --- | --- | --- |
| binds | binds | ARF6 (ADP-ribosylation factor 6) (from UniProt P62330 1-175) | no binding (condition: lysate pre-treated with 1 mM GDP) |
| binds |  | ARF1 (from UniProt P84077 1-181) |  |
